The nature of the series: general procedure: Fmoc solid-phase peptide synthesis; Fmoc-Rink amide AM resin; DIC/HOBt. The following applies: whole synthesis, overall.

In the case of “Ac-D-2Nal-D-Phe(4Cl)-D-3 Pal-Ser-4Aph(Hor)-D-4Aph(Cbm)-Leu-ILys-Pro-D-Ala-NH2”, the isolated yield result is recorded as “overall yield 37%”.

The values above are taken from patent publication US20120041172A1 (Polypeptide Laboratories A/S, priority 2009, published 2012).
